We go through 3 molecules from PMC6037669, “Optimization of a MT1-MMP-targeting Peptide and Its Application in Near-infrared Fluorescence Tumor Imaging” (Scientific Reports, 2018).

No constants are given. Whether binding was seen depends on the method and setting.

This experiment deals with recombinant human MT1-MMP catalytic domain (human) (UniProt P50281). Nature of the experiment: condition: only with free excess peptide (1 mmol/L) added; atomic force microscopy (single-molecule recognition force spectroscopy); peptide covalently on the AFM tip through NHS-PEG18-aldehyde; MT1-MMP immobilised on APTES-treated mica; PBS; 25 °C; control with free excess peptide (1 mmol/L); both purified.

B1: MT1-AF7p (peptide)
peptide: HWKHLHNTKTFL
In the case of B1, the binding result is reported as “no binding”.

B2: MT1-AF7p-H4R (peptide)
peptide: HWKRLHNTKTFL
For the molecule B2, the binding entry was “no binding”.

B3: MT1-AF7p-H4K (peptide)
peptide: HWKKLHNTKTFL
On to B3, for which the binding entry is “no binding”.
